{
  "sequences": {"note": "Sequences of proteins named here, by UniProt entry; tags and fusion partners are left off. Residues count along the entry.", "UniProt Q16552, 24-155": "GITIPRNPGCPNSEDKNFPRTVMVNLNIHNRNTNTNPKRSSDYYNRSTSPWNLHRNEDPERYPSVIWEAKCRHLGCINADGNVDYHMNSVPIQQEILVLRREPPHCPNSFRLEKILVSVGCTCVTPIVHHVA"},
  "source": "patent US20110177578",
  "key": {"[1]": {"target": "IL-17 (IL-17A) (Homo sapiens) (UniProt Q16552)", "assay": "inhibition of the protein", "details": "2'-F pyrimidines, purified recombinant protein, protein details: Peprotech"}, "[2]": {"target": "IL-17 (IL-17A) (Homo sapiens) (UniProt Q16552)", "assay": "activity in cells", "details": "2'-F pyrimidines; dose-dependent suppression of IL-17 (40 ng/ml)-induced IL-6 in NHDF cells; purified recombinant protein; protein details: Peprotech; variant of SEQ 30"}, "[3]": {"details": "variant of SEQ 30, dose not given here"}, "[4]": {"details": "variant of SEQ 44, dose not given here"}, "[5]": {"details": "variant of SEQ 39, dose not given here"}},
  "note": "For some of these results: Construct, isoform or probe ends are uncertain for at least one entry.",
  "data": [
    {"sequence": "GGUCUAGCCGGAGGAGUCAGUAAUCGGUAGACC [SEQ 44]", "values": [
      {"measurement": "functional effect of the aptamer", "setting": "[1]; [3]", "result": "active"},
      {"measurement": "functional effect of the aptamer", "setting": "[2]", "result": "active"}
    ]},
    {"sequence": "CUAGCCGGAGGAGUCAGUAAUCGGUAG [SEQ 54]", "values": [
      {"measurement": "functional effect of the aptamer", "setting": "[1]; [4]", "result": "active"}
    ]},
    {"sequence": "GGGAGCAGGAGAGAGGUCAGAUGGGCAGCGGAGGAUGGCGAAGUCAUUGGGCGCCUAUGCGUGCUGGUGGAG [SEQ 32]", "values": [
      {"measurement": "functional effect of the aptamer", "setting": "[1]; dose not given here", "result": "active"}
    ]},
    {"sequence": "GGUCUACCGGAGGAGUCAGUAAUCGGUAGACC [SEQ 49]", "values": [
      {"measurement": "functional effect of the aptamer", "setting": "[1]; [4]", "result": "active"}
    ]},
    {"sequence": "GGGAGCAGGAGAGAGGUCAGAUGCGAUAGCGAAGUCAUUGAGCGCGUGUCCAACCUAUGCGUGCUAGUGUGA [SEQ 29]", "values": [
      {"measurement": "functional effect of the aptamer", "setting": "[1]; dose not given here", "result": "active"}
    ]},
    {"sequence": "GGGAGCAGGAGAGAGGUCAGAUGGAGGAGGCAGUAAUCGUUGACUGGUAAACCCCUAUGCGUGCUAGUGUGA [SEQ 35]", "values": [
      {"measurement": "functional effect of the aptamer", "setting": "[1]; dose not given here", "result": "active"}
    ]},
    {"sequence": "GGGAGCAGGAGAGAGGUCAGAUGGAGGAGACAGUGAUCGUUGACCCACCGGGUCCUAUGCGUGCUAGUGUGA [SEQ 34]", "values": [
      {"measurement": "functional effect of the aptamer", "setting": "[1]; dose not given here", "result": "active"}
    ]},
    {"sequence": "GGUCUAGCCGGAGGAGUCAGUAAUCGGUAGACC [SEQ 44-5]", "values": [
      {"measurement": "functional effect of the aptamer", "setting": "[1]; 2'-OMe at a12,g13, variant of SEQ 44, dose not given here", "result": "active"}
    ]},
    {"sequence": "GGGAGCAGGAGAGAGGUCAGAUGGAGGAGCCAGUGAUCGUUGACCUCAAUGCACCUAUGCGUGCUAGUGUGA [SEQ 33]", "values": [
      {"measurement": "functional effect of the aptamer", "setting": "[1]; dose not given here", "result": "active"}
    ]},
    {"sequence": "GGGAGCAGGAGAGAGGUCAGAUGGGCAGCAGAGGAUAGCGAAGUCAUUGAGCGCCUAUGCGUGCUAGUGUGA [SEQ 1 (Apt1)]", "values": [
      {"measurement": "functional effect of the aptamer", "setting": "[1]; inhibits IL-17 (0.11 uM) binding to IL-17R-Fc by SPR, 0.33 uM aptamer", "result": "active"}
    ]},
    {"sequence": "GGUCUAGCCGGAGGAGUCAGUAAUCGGUAGACC [SEQ 44-4]", "values": [
      {"measurement": "functional effect of the aptamer", "setting": "[1]; 2'-OMe at g10,g11, variant of SEQ 44, dose not given here", "result": "active"}
    ]},
    {"sequence": "GGAUAGCGAAGUCAUUGAGCGCC [SEQ 40]", "values": [
      {"measurement": "functional effect of the aptamer", "setting": "[1]; [5]", "result": "active"}
    ]},
    {"sequence": "GGUCUAGCCGGAGGAGUCAAUAAUCGGUAGACC [SEQ 51]", "values": [
      {"measurement": "functional effect of the aptamer", "setting": "[1]; [4]", "result": "active"}
    ]},
    {"sequence": "GGUCUAGCCGGAGGAGUCAGUAAUCGG [SEQ 53]", "values": [
      {"measurement": "functional effect of the aptamer", "setting": "[1]; [4]", "result": "active"}
    ]},
    {"sequence": "GGUCUAGCCGGAGGAGUCAGUAAUCGGUAGACC [SEQ 44-8]", "values": [
      {"measurement": "functional effect of the aptamer", "setting": "[1]; 5' PEG40 (SUNBRIGHT GL2-400GS2), 3' idT, variant of SEQ 44, dose not given here", "result": "active"}
    ]},
    {"sequence": "GGGAGCAGGAGAGAGGUCAGAUGGUGCACAUGGGAUAGCGAAGUCAUUGAGCGCCUAUGCGUGCUAGUGUGA [SEQ 2]", "values": [
      {"measurement": "functional effect of the aptamer", "setting": "[1]; dose not given here", "result": "active"}
    ]},
    {"sequence": "GGUCUAGCCGGAGGAGUCAGUAAUCGGUAGACC [SEQ 44-7]", "values": [
      {"measurement": "functional effect of the aptamer", "setting": "[1]; 2'-OMe at a22,a23 (printed sequence also shows 2'-OMe at a15), variant of SEQ 44, dose not given here", "result": "active"}
    ]},
    {"sequence": "GGUCUAGCCGGAGGAGUCAGUAAUCGGUAGACC [SEQ 44-3]", "values": [
      {"measurement": "functional effect of the aptamer", "setting": "[1]; 2'-OMe at a6,g7, variant of SEQ 44, dose not given here", "result": "active"}
    ]},
    {"sequence": "GGGAGCAGGAGAGAGGUCAGAUGUAUAGCGAAGUCAUUGAGCGACAAAGCCGGCCUAUGCGUGCUAGUGUGA [SEQ 36]", "values": [
      {"measurement": "functional effect of the aptamer", "setting": "[1]; dose not given here", "result": "active"}
    ]},
    {"sequence": "GGGGUAGCCGGAGGAGUCAGUAAUCGGUACCCC [SEQ 52]", "values": [
      {"measurement": "functional effect of the aptamer", "setting": "[1]; deoxynucleotides at G1-G4 and C30-C33, variant of SEQ 44, dose not given here", "result": "active"}
    ]},
    {"sequence": "AGAGGUCAGAUGGUCUAGCCGGAGGAGUCAGUAAUCGGUAGACCUAUGCGUG [SEQ 43]", "values": [
      {"measurement": "functional effect of the aptamer", "setting": "[1]; [3]", "result": "active"}
    ]},
    {"sequence": "GUGCACAUGGGAUAGCGAAGUCAUUGAGCGCCUAUGCGUGC [SEQ 42]", "values": [
      {"measurement": "functional effect of the aptamer", "setting": "[1]; variant of SEQ 2, dose not given here", "result": "active"}
    ]},
    {"sequence": "GGGAGCAGGAGAGAGGUCAGAUGGUGAUGCAUAGGAGUGGAGUCAGAUAUAGCCCUAUGCGUGCUAGUGUGA [SEQ 6]", "values": [
      {"measurement": "functional effect of the aptamer", "setting": "[1]; dose not given here", "result": "active"}
    ]},
    {"sequence": "GGGAGCAGGAGAGAGGUCAGAUGUGUAAGGUCGGAAGUCAUGAACGGCCCGGACCUAUGCGUGCUAGUGUGA [SEQ 3]", "values": [
      {"measurement": "functional effect of the aptamer", "setting": "[1]; dose not given here", "result": "active"}
    ]},
    {"sequence": "GGUCUAGCCGGAGAAGUCAGUAAUCGGUAGACC [SEQ 50]", "values": [
      {"measurement": "functional effect of the aptamer", "setting": "[1]; [4]", "result": "active"}
    ]},
    {"sequence": "GCAGAGGAUAGCGAAGUCAUUGAGCGCCUAUGC [SEQ 39]", "values": [
      {"measurement": "functional effect of the aptamer", "setting": "[1]; variant of SEQ 38, dose not given here", "result": "active"}
    ]},
    {"sequence": "GGGAGCAGGAGAGAGGUCAGAUGGAAGUGGAGUCAGAUAUAGCAAUAUUAUGACCUAUGCGUGCUAGUGUGA [SEQ 31]", "values": [
      {"measurement": "functional effect of the aptamer", "setting": "[1]; dose not given here", "result": "active"}
    ]},
    {"sequence": "GGUCUAGCCGGAGGAGUCAGUAAUCGGUAGACC [SEQ 44-2]", "values": [
      {"measurement": "functional effect of the aptamer", "setting": "[1]; 2'-OMe at a15,g16, variant of SEQ 44, dose not given here", "result": "active"}
    ]},
    {"sequence": "GGUCUAGCCGGAGGAGUCAGUAAUCGGUAGACC [SEQ 44-6]", "values": [
      {"measurement": "functional effect of the aptamer", "setting": "[1]; 2'-OMe at g14,a15, variant of SEQ 44, dose not given here", "result": "active"}
    ]},
    {"sequence": "GGGAGCAGGAGAGAGGUCAGAUGCUAUAGCGAAGUCAUUGAGCGAGACAUAGGCCUAUGCGUGCUAGUGUGA [SEQ 4]", "values": [
      {"measurement": "functional effect of the aptamer", "setting": "[1]; dose not given here", "result": "active"}
    ]},
    {"sequence": "CAGAUGGGCAGCAGAGGAUAGCGAAGUCAUUGAGCGCCUAUGCGUGCUAGUGUG [SEQ 37]", "values": [
      {"measurement": "functional effect of the aptamer", "setting": "[1]; variant of SEQ 1 (Apt1), dose not given here", "result": "active"}
    ]},
    {"sequence": "GGGAGCAGGAGAGAGGUCAGAUGAGCGCCAUAGGGUAGAGAAGCCAUUGAUCACCUAUGCGUGCUAGUGUGA [SEQ 5]", "values": [
      {"measurement": "functional effect of the aptamer", "setting": "[1]; dose not given here", "result": "active"}
    ]},
    {"sequence": "GCAGCAGAGGAUAGCGAAGUCAUUGAGCGCCUAUGCGUGC [SEQ 38]", "values": [
      {"measurement": "functional effect of the aptamer", "setting": "[1]; variant of SEQ 37, dose not given here", "result": "active"}
    ]},
    {"sequence": "GGUCUAGCCGGAGGAGUCAGUAAUCGGUAGACC [SEQ 44-1]", "values": [
      {"measurement": "functional effect of the aptamer", "setting": "[1]; 2'-OMe at a19,g20, variant of SEQ 44, dose not given here", "result": "active"}
    ]},
    {"sequence": "GGGGAUAGCGAAGUCAUUGAGCGCCCC [SEQ 41]", "values": [
      {"measurement": "functional effect of the aptamer", "setting": "[1]; [5]", "result": "active"}
    ]},
    {"sequence": "GGGAGCAGGAGAGAGGUCAGAUGGUCUAGCCGGAGGAGUCAGUAAUCGGUAGACCUAUGCGUGCUAGUGUGA [SEQ 30]", "values": [
      {"measurement": "functional effect of the aptamer", "setting": "[1]; dose not given here", "result": "active"}
    ]}
  ]
}
